According to PMC7405549:
These are yes or no findings as the source states them, for the method shown. In cells and extracts the contact can be indirect. A result given as binding can be weak or reduced; the word gives no strength.

Molecular target: Acheron/LARP6 (Manduca sexta) (Manduca sexta (endogenous in ISMs))
Test: co-IP; day 18 Manduca ISM extracts, anti-Acheron antibody, protein A sepharose; 10 mM Tris pH 7.4, 1% triton, 0.5% NP-40, 150 mM NaCl; immunoblot with anti-mouse BAD antibody

B1: Manduca BBH1 (BAD/BNIP3 homology-1) (protein, UniProt A0A861LZ68 1-192)
chain: MMESKSLLPEEMAESWVELNSGGGLAAVENEYIRLLREAQRESRDSSVRHSRASSVKGSPKSPPNSPNLEPSTEDELKGVYINCWRDDSNDWVWEWSSRPDQVPPKDWRFKHPASARGPPSATSSIEVLEQQLAPPPMQQSHCLSVRRTCLFSRGAIAAVLVTNIVSLLLGAGIGVWLSKKGMLPPRLIIIN
  binding: binds
